Results: patent US10563263B2, “Genetic polymorphisms associated with statin response and cardiovascular diseases, methods of detection and uses thereof” (CELERA CORPORATION, priority 2010, dated 2020)
The source gives many values for each of these; only a part stands here.

Tested on: CHD
Experiment: Meta-analysis of CARE and WOSCOPS combined, synergy index, CHD endpoint
Format: in vivo, human
Description: Tables 4-5 provide meta-analyses of CARE and WOSCOPS combined (2nd section of each table) for two endpoints (CHD and CVD) and three genetic models (dominant, recessive, and additive), as well as logistic regression analyses of CARE (3rd section of each table) and WOSCOPS (4th section of each table) individually.
Tables 12 and 17 provide results of meta-analysis of the CARE and WOSCOPS sample sets combined by direct genotyping and by imputing genotypes.
“P” indicates the p-value, and “P(R)” (or “P.R.”) indicates the p-value random effect. Both of these are p-values corresponding to a statistical test of whether the combined synergy index is equal to one but use different assumptions to derive the p-value. “P” is calculated using a fixed effects model, and “P(R)” is calculated using a random effects model.
“OR” indicates the odds ratio (synergy index) calculated from a fixed effects model, and “OR(R)” (or “OR.R.”) indicates the odds ratio (synergy index) calculated from a random effects model.

[1] = rs4146972 allele T DOMINANT Genotyped
[2] = rs4238087 allele G DOMINANT Imputed
[3] = rs4251569 allele T ADDITIVE Imputed
[4] = rs4251569 allele T DOMINANT Imputed
[5] = rs4273613 allele T ADDITIVE Imputed
[6] = rs4273613 allele T DOMINANT Imputed
[7] = rs4291049 allele T RECESSIVE Imputed
[8] = rs4315598 allele T ADDITIVE Imputed
[9] = rs4315598 allele T GENOTYPIC Imputed
[10] = rs4315598 allele T RECESSIVE Imputed
[11] = rs4321395 allele A DOMINANT Imputed
[12] = rs4321596 allele T RECESSIVE Genotyped
[13] = rs4324417 allele T DOMINANT Imputed
[14] = rs4328619 allele G DOMINANT Genotyped
[15] = rs4338909 allele T ADDITIVE Imputed
[16] = rs4370878 allele G DOMINANT Imputed
[17] = rs4379434 allele T DOMINANT Genotyped
[18] = rs4416407 allele T DOMINANT Imputed
[19] = rs4417899 allele C RECESSIVE Imputed
[20] = rs4442732 allele A ADDITIVE Imputed
[21] = rs4444612 allele G ADDITIVE Imputed
[22] = rs4444612 allele G GENOTYPIC Imputed
[23] = rs4444612 allele G RECESSIVE Imputed
[24] = rs4450660 allele C DOMINANT Imputed
[25] = rs4509702 allele C DOMINANT Imputed
[26] = rs4526920 allele G GENOTYPIC Imputed
[27] = rs4533145 allele T DOMINANT Imputed
[28] = rs4557006 allele A DOMINANT Imputed
[29] = rs4570530 allele C DOMINANT Imputed
[30] = rs4615971 allele C DOMINANT Imputed
[31] = rs4628119 allele A DOMINANT Imputed
[32] = rs4664443 allele G ADDITIVE Imputed
[33] = rs4688259 allele T DOMINANT Imputed
[34] = rs4688632 allele G RECESSIVE Imputed
[35] = rs4695284 allele A ADDITIVE Imputed
[36] = rs4700302 allele A ADDITIVE Imputed
[37] = rs4702720 allele A ADDITIVE Imputed
[38] = rs4702720 allele A DOMINANT Imputed
[39] = rs4711091 allele G GENOTYPIC Genotyped
[40] = rs4714484 allele A ADDITIVE Imputed
[41] = rs4736802 allele G DOMINANT Imputed
[42] = rs4760785 allele A ADDITIVE Imputed
[43] = rs4760785 allele A DOMINANT Imputed
[44] = rs4760785 allele A GENOTYPIC Imputed
[45] = rs4760894 allele T ADDITIVE Imputed
[46] = rs4760894 allele T DOMINANT Imputed

Structure (SMILES): CC[C@H](C)C(=O)O[C@H]1C[C@H](O)C=C2C=C[C@H](C)[C@H](CC[C@@H](O)C[C@@H](O)CC(=O)O)[C@H]21 [Pravastatin, pravastatin]
- OR(R) (rs4076201 allele G RECESSIVE Imputed): 2.9721
- OR [1]: 1.4758
- OR(R) [1]: 1.4758
- OR [2]: 0.6487
- OR(R) [2]: 0.6459
- Meta-analysis OR (rs4243071 allele G vs A (ref)): 0.43
- OR [3]: 0.6585
- OR(R) [3]: 0.6585
- OR [4]: 0.6487
- OR(R) [4]: 0.6458
- OR [5]: 0.2451
- OR(R) [5]: 0.2451
- OR [6]: 0.2509
- OR(R) [6]: 0.2509
- OR [7]: 0.5605
- OR(R) [7]: 0.5605
- OR [8]: 1.369
- OR(R) [8]: 1.369
- OR [9]: 1.9445
- OR(R) [9]: 1.9445
- OR [10]: 1.6981
- OR(R) [10]: 1.6981
- OR [11]: 0.5856
- OR(R) [11]: 0.5856
- OR [12]: 2.3233
- OR(R) [12]: 2.3233
- OR [13]: 1.6531
- OR(R) [13]: 1.6531
- OR [14]: 0.6704
- OR(R) [14]: 0.6704
- OR [15]: 1.3842
- OR(R) [15]: 1.3842
- OR [16]: 1.5785
- OR(R) [16]: 1.5785
- OR [17]: 1.6163
- OR(R) [17]: 1.6163
- OR [18]: 1.6929
- OR(R) [18]: 1.6929
- OR [19]: 0.5892
- OR(R) [19]: 0.5892
- OR [20]: 0.6531
- OR(R) [20]: 0.6531
- OR [21]: 1.3768
- OR(R) [21]: 1.3768
- OR [22]: 1.9589
- OR(R) [22]: 1.9589
- OR [23]: 1.7015
- OR(R) [23]: 1.7015
- OR [24]: 1.5918
- OR(R) [24]: 1.5918
- OR [25]: 1.5785
- OR(R) [25]: 1.5785
- OR [26]: 2.2431
- OR(R) [26]: 2.2431
- OR [27]: 0.5529
- OR(R) [27]: 0.5529
- OR [28]: 0.5972
- OR(R) [28]: 0.5972
- OR [29]: 1.5785
- OR(R) [29]: 1.5785
- OR [30]: 1.5635
- OR(R) [30]: 1.5635
- Meta-analysis OR (rs4626316 allele A vs G (ref)): 0.35
- OR [31]: 0.6205
- OR(R) [31]: 0.6205
- OR [32]: 0.7086
- OR(R) [32]: 0.7086
- OR [33]: 1.6935
- OR(R) [33]: 1.6935
- OR [34]: 0.5987
- OR(R) [34]: 0.5987
- Meta-analysis OR (rs4689078, A1 (non-ref) G, A2 (ref) A): 1.27
- OR [35]: 1.894
- OR(R) [35]: 1.894
- OR [36]: 0.5243
- OR(R) [36]: 0.5243
- OR [37]: 0.6414
- OR(R) [37]: 0.6414
- OR [38]: 0.5989
- OR(R) [38]: 0.5989
- OR [39]: 1.8967
- OR(R) [39]: 1.8967
- OR [40]: 0.6276
- OR(R) [40]: 0.6276
- Meta-analysis OR (rs4726711 allele G vs A (ref)): 0.71
- OR [41]: 1.6304
- OR(R) [41]: 1.6304
- OR [42]: 0.7392
- OR(R) [42]: 0.7392
- OR [43]: 0.6285
- OR(R) [43]: 0.6285
- OR [44]: 0.574
- OR(R) [44]: 0.574
- OR [45]: 0.7392
- OR(R) [45]: 0.7392
- OR [46]: 0.6285
- OR(R) [46]: 0.6285
- OR (rs4760894 allele T GENOTYPIC Imputed): 0.574
